PubChem BioAssay AID1259308 – NCATS, 2017
Assay: 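Candidate targets for better recombinant protein yield in mammalian cells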 (primary screen). Cell system: human HEK293 embryonic kidney cells stably expressing firefly luciferase (HEK-CMV-Luc2-Hygro). Reagent: single siRNA against human genes, 0.8 pmol siRNA per well. Duration: 72 h. Measured: 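Reporter luminescence and viable-cell signal on separate replicate plates, given as percent of non-targeting control and median/MAD z-scores, plus per-cell luciferase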. Scale: total luciferase, z-score and total luciferase, % of control: higher = more reporter protein produced. Call rule: 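Active when the median/MAD z-score for overall luciferase is greater than 3; a gene was taken forward for validation with new siRNAs if at least two of its three siRNAs passed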. Meaning of the calls: active = raised luciferase; inactive = no rise.
Shown is an unselected part of about 59,000 deposited reagents. About 1,510 of them (2.6%) count as active. 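Calls use total luciferase alone and ignore viability, so some active siRNAs may act by altering cell number.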 Further read-outs or replicates are left out here. No sequences are given here.

| Gene | PubChem SID | total luciferase, z-score | total luciferase, % of control | activity call |
| --- | --- | --- | --- | --- |
| DGKQ (diacylglycerol kinase theta) | SID160752464 | 0.844 | 98.7 | inactive |
| DGKQ (diacylglycerol kinase theta) | SID160752474 | 4.43 | 170 | active |
| DGKQ (diacylglycerol kinase theta) | SID160752485 | -0.802 | 65.9 | inactive |
| TRAPPC2 (trafficking protein particle complex subunit 2) | SID160716544 | -1.56 | 50.8 | inactive |
| TRAPPC2 (trafficking protein particle complex subunit 2) | SID160716545 | 2.43 | 130 | inactive |
| TRAPPC2 (trafficking protein particle complex subunit 2) | SID160733741 | -0.778 | 66.4 | inactive |
| PSG2 (pregnancy specific beta-1-glycoprotein 2) | SID160715145 | -0.92 | 63.6 | inactive |
| PSG2 (pregnancy specific beta-1-glycoprotein 2) | SID160715146 | 1 | 102 | inactive |
| PSG2 (pregnancy specific beta-1-glycoprotein 2) | SID160715147 | -1.11 | 59.8 | inactive |
| PRR25 (proline rich 25) | SID160725184 | -0.533 | 71.3 | inactive |
| PRR25 (proline rich 25) | SID160765789 | 1.23 | 106 | inactive |
| PRR25 (proline rich 25) | SID160765791 | 0.524 | 92.3 | inactive |
| CATSPERB (catsper channel auxiliary subunit beta) | SID160749521 | 0.0311 | 82.5 | inactive |
| CATSPERB (catsper channel auxiliary subunit beta) | SID160749522 | -0.594 | 70.1 | inactive |
| CATSPERB (catsper channel auxiliary subunit beta) | SID160749524 | -1.04 | 61.2 | inactive |
| A3GALT2 (alpha 1,3-galactosyltransferase 2) | SID160724793 | -0.94 | 63.2 | inactive |
| A3GALT2 (alpha 1,3-galactosyltransferase 2) | SID160732432 | 3.41 | 150 | active |
| A3GALT2 (alpha 1,3-galactosyltransferase 2) | SID160756645 | 0.819 | 98.2 | inactive |
| ZNF133 (zinc finger protein 133) | SID160719152 | 0.732 | 96.4 | inactive |
| ZNF133 (zinc finger protein 133) | SID160719153 | -0.4 | 73.9 | inactive |
| ZNF133 (zinc finger protein 133) | SID160719154 | -1.45 | 53 | inactive |
| BTN2A1 (butyrophilin subfamily 2 member A1) | SID160729984 | 0.191 | 85.7 | inactive |
| BTN2A1 (butyrophilin subfamily 2 member A1) | SID160729985 | -1.58 | 50.5 | inactive |
| BTN2A1 (butyrophilin subfamily 2 member A1) | SID160730507 | 0.139 | 84.7 | inactive |

Just “total luciferase, % of control” (3 entries from above):
BTN2A1 (butyrophilin subfamily 2 member A1) [SID160729984]	85.7
BTN2A1 (butyrophilin subfamily 2 member A1) [SID160729985]	50.5
BTN2A1 (butyrophilin subfamily 2 member A1) [SID160730507]	84.7
